Here are results for 7 substances from paper PMC12193315.

Sequences of proteins named here, by UniProt entry; tags and fusion partners are left off. Residues count along the entry.
UniProt P0DTC7, residues 16-121: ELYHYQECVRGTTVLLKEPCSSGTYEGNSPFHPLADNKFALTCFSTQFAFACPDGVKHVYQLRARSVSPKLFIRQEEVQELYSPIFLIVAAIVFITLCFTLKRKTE
UniProt P27824, residues 21-592: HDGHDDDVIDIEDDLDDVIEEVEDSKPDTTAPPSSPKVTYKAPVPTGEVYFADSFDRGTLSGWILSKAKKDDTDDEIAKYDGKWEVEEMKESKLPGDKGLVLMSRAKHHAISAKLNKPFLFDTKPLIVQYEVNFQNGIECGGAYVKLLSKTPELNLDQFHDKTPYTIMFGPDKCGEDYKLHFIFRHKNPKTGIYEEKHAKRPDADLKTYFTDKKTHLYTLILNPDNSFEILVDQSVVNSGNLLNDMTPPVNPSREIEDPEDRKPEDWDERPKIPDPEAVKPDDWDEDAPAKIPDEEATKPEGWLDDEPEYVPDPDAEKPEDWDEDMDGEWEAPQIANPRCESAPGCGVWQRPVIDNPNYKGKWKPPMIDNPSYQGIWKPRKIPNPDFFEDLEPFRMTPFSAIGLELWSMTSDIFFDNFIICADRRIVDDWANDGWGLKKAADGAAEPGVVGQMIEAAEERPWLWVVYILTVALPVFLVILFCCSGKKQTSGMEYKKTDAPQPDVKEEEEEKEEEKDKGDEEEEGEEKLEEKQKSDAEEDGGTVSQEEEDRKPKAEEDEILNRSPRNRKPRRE
UniProt P08238: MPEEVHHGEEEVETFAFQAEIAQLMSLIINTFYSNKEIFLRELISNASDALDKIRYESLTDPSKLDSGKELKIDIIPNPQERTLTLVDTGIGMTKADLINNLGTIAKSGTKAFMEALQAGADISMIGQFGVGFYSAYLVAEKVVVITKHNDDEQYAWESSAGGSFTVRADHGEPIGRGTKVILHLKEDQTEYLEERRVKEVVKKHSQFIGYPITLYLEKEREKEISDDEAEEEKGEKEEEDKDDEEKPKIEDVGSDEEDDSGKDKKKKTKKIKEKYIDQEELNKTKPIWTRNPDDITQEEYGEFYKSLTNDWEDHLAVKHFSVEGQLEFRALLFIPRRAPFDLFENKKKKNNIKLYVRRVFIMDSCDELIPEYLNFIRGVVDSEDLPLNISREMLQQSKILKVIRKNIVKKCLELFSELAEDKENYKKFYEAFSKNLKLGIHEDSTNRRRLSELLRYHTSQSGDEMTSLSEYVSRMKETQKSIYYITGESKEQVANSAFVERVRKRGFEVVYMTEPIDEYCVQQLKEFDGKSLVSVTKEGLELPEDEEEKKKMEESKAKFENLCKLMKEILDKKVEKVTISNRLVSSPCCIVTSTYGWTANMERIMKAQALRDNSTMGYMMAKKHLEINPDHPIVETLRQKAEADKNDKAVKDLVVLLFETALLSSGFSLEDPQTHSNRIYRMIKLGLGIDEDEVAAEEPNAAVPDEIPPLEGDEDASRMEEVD
UniProt P14625, residues 22-803: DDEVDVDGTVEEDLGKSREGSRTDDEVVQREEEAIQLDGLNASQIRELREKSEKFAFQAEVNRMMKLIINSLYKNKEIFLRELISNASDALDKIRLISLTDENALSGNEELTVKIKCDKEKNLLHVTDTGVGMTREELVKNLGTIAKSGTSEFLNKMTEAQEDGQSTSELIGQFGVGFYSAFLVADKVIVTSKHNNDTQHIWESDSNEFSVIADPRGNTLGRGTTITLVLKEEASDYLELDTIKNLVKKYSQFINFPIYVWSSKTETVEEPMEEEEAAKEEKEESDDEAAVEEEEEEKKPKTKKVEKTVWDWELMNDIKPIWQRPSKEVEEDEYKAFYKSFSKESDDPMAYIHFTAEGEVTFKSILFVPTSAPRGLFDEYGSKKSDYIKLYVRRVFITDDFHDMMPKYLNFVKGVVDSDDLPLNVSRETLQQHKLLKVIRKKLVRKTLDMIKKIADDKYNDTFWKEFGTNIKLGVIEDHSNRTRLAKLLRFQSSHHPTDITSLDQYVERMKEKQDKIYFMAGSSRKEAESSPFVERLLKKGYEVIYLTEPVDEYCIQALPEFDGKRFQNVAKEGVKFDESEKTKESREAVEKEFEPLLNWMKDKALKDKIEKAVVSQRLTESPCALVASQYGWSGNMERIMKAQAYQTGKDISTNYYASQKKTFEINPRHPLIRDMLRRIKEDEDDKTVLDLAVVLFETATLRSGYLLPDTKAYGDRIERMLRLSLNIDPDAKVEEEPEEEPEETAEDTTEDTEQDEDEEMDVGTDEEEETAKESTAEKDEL
UniProt P11142: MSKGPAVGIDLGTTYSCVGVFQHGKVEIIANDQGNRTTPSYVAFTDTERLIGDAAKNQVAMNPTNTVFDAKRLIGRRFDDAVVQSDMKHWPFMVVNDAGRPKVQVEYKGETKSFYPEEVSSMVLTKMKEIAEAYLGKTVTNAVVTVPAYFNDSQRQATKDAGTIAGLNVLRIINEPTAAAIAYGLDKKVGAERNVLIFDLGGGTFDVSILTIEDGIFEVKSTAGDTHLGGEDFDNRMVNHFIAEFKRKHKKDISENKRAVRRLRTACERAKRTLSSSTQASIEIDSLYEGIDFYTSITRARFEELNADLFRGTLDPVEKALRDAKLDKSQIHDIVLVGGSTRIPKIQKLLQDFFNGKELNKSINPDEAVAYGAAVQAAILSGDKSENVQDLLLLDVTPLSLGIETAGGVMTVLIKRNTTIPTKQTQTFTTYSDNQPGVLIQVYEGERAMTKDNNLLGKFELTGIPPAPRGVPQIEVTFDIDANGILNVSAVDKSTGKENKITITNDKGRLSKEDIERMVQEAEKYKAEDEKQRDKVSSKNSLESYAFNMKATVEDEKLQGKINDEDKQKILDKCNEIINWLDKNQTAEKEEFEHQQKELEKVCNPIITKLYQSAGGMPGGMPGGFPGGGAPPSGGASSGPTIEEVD
UniProt P35580: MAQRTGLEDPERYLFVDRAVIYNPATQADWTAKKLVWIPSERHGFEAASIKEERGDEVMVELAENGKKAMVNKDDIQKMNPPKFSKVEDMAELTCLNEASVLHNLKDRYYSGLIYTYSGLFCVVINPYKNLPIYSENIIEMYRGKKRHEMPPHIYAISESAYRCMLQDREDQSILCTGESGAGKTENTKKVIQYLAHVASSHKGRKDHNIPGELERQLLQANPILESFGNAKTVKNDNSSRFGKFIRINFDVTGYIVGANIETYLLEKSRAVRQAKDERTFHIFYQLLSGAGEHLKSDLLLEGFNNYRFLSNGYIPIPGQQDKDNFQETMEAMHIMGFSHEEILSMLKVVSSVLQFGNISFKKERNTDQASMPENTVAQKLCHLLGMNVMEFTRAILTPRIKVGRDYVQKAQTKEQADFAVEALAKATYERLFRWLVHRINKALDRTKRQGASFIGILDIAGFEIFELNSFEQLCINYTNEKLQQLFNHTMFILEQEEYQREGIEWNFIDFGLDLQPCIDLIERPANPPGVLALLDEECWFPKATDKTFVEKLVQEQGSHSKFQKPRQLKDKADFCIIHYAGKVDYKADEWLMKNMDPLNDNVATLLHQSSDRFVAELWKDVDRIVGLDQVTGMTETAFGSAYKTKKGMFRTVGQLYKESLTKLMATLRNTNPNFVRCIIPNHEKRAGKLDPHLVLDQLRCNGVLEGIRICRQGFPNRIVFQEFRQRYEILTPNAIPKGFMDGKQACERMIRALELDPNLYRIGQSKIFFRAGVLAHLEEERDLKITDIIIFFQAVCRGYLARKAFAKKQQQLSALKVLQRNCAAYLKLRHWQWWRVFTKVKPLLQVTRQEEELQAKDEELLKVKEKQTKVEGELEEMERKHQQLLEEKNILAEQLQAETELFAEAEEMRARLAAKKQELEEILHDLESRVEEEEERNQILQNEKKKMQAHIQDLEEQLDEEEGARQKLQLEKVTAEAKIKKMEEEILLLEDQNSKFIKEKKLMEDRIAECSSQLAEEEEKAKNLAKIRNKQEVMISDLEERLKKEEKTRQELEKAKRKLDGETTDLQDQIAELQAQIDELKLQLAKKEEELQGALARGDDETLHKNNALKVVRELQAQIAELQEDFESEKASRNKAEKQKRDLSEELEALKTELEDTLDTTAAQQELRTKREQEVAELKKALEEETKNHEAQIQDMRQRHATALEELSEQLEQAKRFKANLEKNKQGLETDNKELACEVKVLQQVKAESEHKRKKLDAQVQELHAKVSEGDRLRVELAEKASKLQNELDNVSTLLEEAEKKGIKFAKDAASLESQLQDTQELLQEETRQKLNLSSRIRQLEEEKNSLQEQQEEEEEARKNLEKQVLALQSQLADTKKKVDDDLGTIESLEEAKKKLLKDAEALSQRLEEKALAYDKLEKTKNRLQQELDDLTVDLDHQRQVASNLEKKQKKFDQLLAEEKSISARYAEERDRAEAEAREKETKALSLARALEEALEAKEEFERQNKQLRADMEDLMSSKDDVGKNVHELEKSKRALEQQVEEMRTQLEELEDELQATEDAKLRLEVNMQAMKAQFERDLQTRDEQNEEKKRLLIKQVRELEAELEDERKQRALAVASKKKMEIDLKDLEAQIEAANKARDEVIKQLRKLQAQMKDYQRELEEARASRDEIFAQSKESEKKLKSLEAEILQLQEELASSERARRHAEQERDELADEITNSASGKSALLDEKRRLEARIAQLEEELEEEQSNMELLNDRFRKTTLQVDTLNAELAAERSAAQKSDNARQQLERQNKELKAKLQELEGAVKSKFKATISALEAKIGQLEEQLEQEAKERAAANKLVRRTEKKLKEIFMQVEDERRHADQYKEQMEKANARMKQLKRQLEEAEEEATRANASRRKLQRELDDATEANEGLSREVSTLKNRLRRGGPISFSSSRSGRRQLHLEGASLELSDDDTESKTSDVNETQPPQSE
UniProt P60660: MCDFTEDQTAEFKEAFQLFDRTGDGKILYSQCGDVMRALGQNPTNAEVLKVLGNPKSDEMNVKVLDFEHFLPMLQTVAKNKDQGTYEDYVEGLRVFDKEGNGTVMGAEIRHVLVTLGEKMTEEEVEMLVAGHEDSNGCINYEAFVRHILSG

Results are given in words; binding and its absence hold for the method and conditions named. Binding seen in cells or lysates may run through a third protein. These calls come from enrichment with a bait or labelling near it, and not all partners need be listed.

The target in this assay is SARS-CoV-2 accessory protein ORF7a, full length, Flag-tagged (pCAGEN-Flag-ORF7a) (SARS-CoV-2) (UniProt P0DTC7). Nature of the assay: affinity purification with mass spectrometry.
As for CANX (from UniProt P27824 21-592), the binding entry is on record as “binds”.

As for HSP90AB1 (from UniProt P08238 1-724), the binding result is “binds”.

As to HSP90B1 (from UniProt P14625 22-803), the binding entry is “binds”.

As to HSPA8 (from UniProt P11142 1-646), the binding entry is listed as “binds”.

Turning to MYH10 (from UniProt P35580 1-1976), the binding entry is recorded as “binds”.

In the case of MYL6 (from UniProt P60660 1-151), the binding result is given as “binds”.

Regarding VCP (from UniProt P55072 1-806), the binding result is on record as “binds”.
